The target in this test is T1, ZW10 (UniProt O43264).
T1 sequence (whole entry): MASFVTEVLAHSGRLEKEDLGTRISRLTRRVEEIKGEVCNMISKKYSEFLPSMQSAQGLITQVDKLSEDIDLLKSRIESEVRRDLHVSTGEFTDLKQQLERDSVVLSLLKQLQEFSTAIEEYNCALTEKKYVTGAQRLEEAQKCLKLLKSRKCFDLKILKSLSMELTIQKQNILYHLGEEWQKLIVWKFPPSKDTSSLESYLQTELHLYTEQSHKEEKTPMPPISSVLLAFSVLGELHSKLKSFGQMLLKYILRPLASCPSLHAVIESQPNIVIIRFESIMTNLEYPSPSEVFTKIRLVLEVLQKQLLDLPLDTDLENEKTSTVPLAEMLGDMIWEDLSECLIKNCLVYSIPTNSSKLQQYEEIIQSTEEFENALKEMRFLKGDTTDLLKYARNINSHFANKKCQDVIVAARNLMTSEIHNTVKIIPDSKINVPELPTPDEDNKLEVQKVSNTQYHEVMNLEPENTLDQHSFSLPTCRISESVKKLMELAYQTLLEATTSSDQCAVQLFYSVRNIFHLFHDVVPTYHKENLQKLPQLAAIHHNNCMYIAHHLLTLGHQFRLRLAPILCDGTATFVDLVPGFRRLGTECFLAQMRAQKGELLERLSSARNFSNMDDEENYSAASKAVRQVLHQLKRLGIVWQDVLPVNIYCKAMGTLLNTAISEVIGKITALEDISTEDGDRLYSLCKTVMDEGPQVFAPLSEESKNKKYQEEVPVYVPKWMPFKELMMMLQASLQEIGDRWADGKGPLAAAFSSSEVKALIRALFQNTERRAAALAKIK
The experiment in a line: NP40-soluble protein abundance relative to vehicle (solubility fold change) (ratio); higher = more soluble protein in presence of GTP. How it is done: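 Solubility proteome profiling in Jurkat crude lysate. Lysate was treated with Mg-GTP (0.1-10 mM) for 10 min at room temperature and 3 min at 37 °C, then solubilised with 0.8% NP40 and benzonase, followed by ultracentrifugation. Proteins were quantified by TMT10 LC-MS/MS; the value is the NP40-soluble abundance relative to the NP40-processed vehicle, from 3 independent experiments.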

± gives the standard deviation of the averaged measurements. Some of the results follow.

Experimental findings from the supplement of paper PMC6411743 are described below.

For the compound `Nc1nc2c(ncn2[C@@H]2O[C@H](COP(=O)(O)OP(=O)(O)OP(=O)(O)O)[C@@H](O)[C@H]2O)c(=O)[nH]1` [guanosine triphosphate], the NP40-soluble protein abundance came out at 1.01 ± 0.025 (concentration: 0.1mM); 1.04 ± 0.05 (concentration: 0.5mM); 1.02 ± 0.081 (concentration: 1mM); 1.03 ± 0.054 (concentration: 2mM); 1.02 ± 0.053 (concentration: 4mM); 1.01 ± 0.051 (concentration: 6mM). Besides, the NP40-soluble protein abundance was 1.03 ± 0.065 (concentration: 8mM) and 0.984 ± 0.05 (concentration: 10mM).
